Binding data for one substance are collected here from patent US20170101472A1.

Sequences of proteins named here, by UniProt entry; tags and fusion partners are left off.
UniProt Q9EP73: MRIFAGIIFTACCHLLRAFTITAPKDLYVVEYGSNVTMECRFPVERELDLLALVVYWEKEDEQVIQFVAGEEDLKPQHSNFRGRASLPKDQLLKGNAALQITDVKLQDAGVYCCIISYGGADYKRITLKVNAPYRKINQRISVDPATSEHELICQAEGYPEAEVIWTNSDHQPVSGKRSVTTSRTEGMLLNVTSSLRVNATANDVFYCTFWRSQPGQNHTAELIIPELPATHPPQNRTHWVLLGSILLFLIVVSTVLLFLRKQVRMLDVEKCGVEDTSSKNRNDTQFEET

These are yes or no findings as the source states them, for the method shown. Some entries that bind do so weakly or less than the wild type.

The experiment addresses mouse PD-L1 (mouse) (UniProt Q9EP73). Nature of the experiment: SPR Biacore.

In the case of “human PD-1 (from UniProt Q15116 25-170) (receptor)”, the binding result is given as “binds”.
